Some entries share one result that the patent states for a list of compounds.
Molecular target: T1, PI3Kα H1047R (Homo sapiens, UniProt P42336, H1047R)
T1 construct: The MDA-MB-453 (ATCC-HTB-131) cell line (PI3Kα H1047R); host or cells: MDA-MB-453
Assay: PI3Kα H1047R mutant in vitro cell based assay, MDA-MB-453 cells (AlphaLisa SureFire)
Details: IC50 in SKBR3 divided by IC50 in MDA-MB-453
From the text: PI3K-Alpha Kinase (PI3Kα) Activity: Wild-Type PI3Kα, H1047R Mutant PI3Kα, and E545K Mutant PI3Kα In Vitro Cell Based Assays and Determination of IC50 Values for Inhibitors
The MDA-MB-453 (ATCC-HTB-131) cell line (PI3Kα H1047R) and MCF-7 (ATCC-HTB-22) cell line (PI3Kα E545K), MDA-MB-361 (ATCC-HTB-27) cell line (PI3Kα E545K), and SKBR3 (ATCC-HTB-30) cell line (wild type PI3Kα) were obtained from the American Type Culture Collection (Manassas, VA). MDA-MB-453 cells were maintained in Dulbecco's Modified Eagle Media (DMEM, Gibco 12430) supplemented with 10% Fetal Bovine Serum, heat inactivated (FBS HI, Gibco 10082), 1× non-essential amino acids (NEAA, Gibco 11140), 1 mM sodium pyruvate (Gibco 11360) and 1× Anti-Anti (Gibco 15240). MCF-7 cells were maintained in Minimum Essential Media (MEM) (Gibco 11095) supplemented with 10% Fetal Bovine Serum, heat inactivated (FBS HI, Gibco 10082), 1× non-essential amino acids (NEAA, Gibco 11140), 1 mM sodium pyruvate (Gibco 11360), 1× Anti-Anti (Gibco 15240) and 10 μg/mL human insulin (Sigma I 9278). MDA-MB-361 cells were maintained in Dulbecco's Modified Eagle Media (DMEM, Gibco 12430) supplemented with 20% Fetal Bovine Serum, heat inactivated (FBS HI, Gibco 10082), 1× non-essential amino acids (NEAA, Gibco 11140), 1 mM sodium pyruvate (Gibco 11360) and 1× Anti-Anti (Gibco 15240). SKBR3 cells were maintained in McCoy's 5A (Gibco 16600) supplemented with 10% Fetal Bovine Serum, heat inactivated (FBS HI, Gibco 10082), and 1× Anti-Anti (Gibco 15240). Cultures were maintained in a humidified incubator at 37° C. under 5% CO2/95% air.
For compound testing in 0% FBS, MDA-MB-453, MCF-7 and SKBR3 cells were seeded at a density of 1.5×10^4, 1.0×10^4, and 1.0×10^4 cells, respectively, per well in white 384-well plates in 20 μl of Minimum Essential Media (MEM) assay media with 1×NEAA, 1 mM sodium pyruvate, and 1 μg/mL human insulin (Sigma 19278) (Assay Medium); while MDA-MB-361 cells were seeded at a density of 1.5×10^4 per well in white 384-well plates in 20 μl Assay Medium without insulin. After plating, cells were allowed to attach overnight. Compounds dissolved in 10 mM stock solutions in DMSO were serially diluted 1:3 in DMSO to generate a 10-point dilution series and plated using an acoustic liquid handler system (Echo 550 Series Liquid Handler, Labcyte). A 5× intermediate compound dilution plate in MEM with 1×NEAA and 1 mM sodium pyruvate (150 μM starting compound concentration in 1.5% DMSO) was then prepared. Five μl of the intermediate serially diluted compounds were added to the cell plate to final concentrations ranging from […] in 0.3% DMSO. 0.3% DMSO alone was used to establish the maximum (MAX) signal and GDC-0032 at a final concentration of 1 μM was used as a reference compound for the minimum (MIN) signal. After 3 hours treatment, the medium was removed, and the cells were lysed in 10 μL of 1× SureFire Lysis buffer with shaking for 10 minutes at room temperature. The Acceptor Mix (Reaction Buffer 1+Reaction Buffer 2+Activation Buffer+SureFire Ultra Acceptor Beads) was prepared by diluting Activation buffer 25-fold in combined Reaction Buffer 1 and Reaction Buffer 2.
The Acceptor beads were diluted 50-fold in the combined Reaction Buffers. Five μL of Acceptor Mix was added to each well, the plate was sealed and covered with foil and incubated for 1 hour at room temperature. The Donor Mix (dilution buffer+SureFire Ultra Donor Beads) was prepared by diluting Donor Beads 50-fold in dilution buffer. Five μL of the Donor Mix was added to each well and the plate sealed and covered with foil and incubated for 1-2 hours at room temperature in the dark. The plates were read on a Neo2 plate reader instrument from Biotek using standard AlphaLisa settings.
Compounds were tested in duplicate and the % inhibition at each compound concentration was used to generate two dose response curves. One IC50 was generated using average % inhibition at each compound concentration. […]

Amino acid sequences for entries named in this document (tags omitted).
UniProt P42336, whole entry H1047R: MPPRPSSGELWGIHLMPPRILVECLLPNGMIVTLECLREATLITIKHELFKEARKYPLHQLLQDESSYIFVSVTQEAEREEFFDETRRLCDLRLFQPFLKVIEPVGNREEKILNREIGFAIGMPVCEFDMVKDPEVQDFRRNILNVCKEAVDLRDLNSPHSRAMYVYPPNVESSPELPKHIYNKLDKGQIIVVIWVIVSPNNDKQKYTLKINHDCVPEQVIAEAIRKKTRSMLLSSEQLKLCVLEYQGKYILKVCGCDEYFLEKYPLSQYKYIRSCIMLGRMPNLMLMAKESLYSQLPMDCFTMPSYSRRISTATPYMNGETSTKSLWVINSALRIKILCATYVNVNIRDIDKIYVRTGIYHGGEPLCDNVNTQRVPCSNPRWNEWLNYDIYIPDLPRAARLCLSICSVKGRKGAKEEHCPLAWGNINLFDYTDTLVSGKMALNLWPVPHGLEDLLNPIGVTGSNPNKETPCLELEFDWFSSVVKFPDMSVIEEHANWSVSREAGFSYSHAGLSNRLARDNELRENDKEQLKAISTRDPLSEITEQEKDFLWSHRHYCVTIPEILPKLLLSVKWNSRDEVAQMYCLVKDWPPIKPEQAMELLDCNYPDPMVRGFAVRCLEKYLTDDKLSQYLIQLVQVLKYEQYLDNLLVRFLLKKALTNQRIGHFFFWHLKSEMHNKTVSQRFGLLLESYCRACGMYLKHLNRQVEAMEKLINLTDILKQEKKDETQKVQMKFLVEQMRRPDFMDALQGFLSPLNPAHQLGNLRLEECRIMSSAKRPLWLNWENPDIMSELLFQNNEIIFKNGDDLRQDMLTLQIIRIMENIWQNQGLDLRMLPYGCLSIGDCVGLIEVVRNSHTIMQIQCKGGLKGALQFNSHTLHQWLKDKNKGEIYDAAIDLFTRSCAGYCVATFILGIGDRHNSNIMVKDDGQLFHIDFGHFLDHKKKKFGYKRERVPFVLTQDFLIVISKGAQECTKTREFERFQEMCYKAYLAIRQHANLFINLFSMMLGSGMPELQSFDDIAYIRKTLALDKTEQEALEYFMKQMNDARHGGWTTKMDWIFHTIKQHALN

Compound	fold-selectivity for PI3K-Alpha kinase H1047R mutant versus wild-type
Cc1cc([C@@H](C)Oc2ccc(Cl)nc2S(N)(=O)=O)c2oc(-c3ccc4nonc4c3)c(C)c(=O)c2c1 [Example 27C, 3-[(1R)-1-[2-(2,1,3-Benzoxadiazol-5-yl)-3,6-dimethyl-4-oxo-chromen-8-yl]ethoxy]-6-chloro-pyridine-2-sulfonamide]	greater than 20 ×
Cc1cc([C@@H](C)Oc2ccc(Cl)nc2S(C)(=O)=O)c2oc(-c3cnn(C)c3)c(C)c(=O)c2c1 [Example 146A, 8-[(1R)-1-[(6-Chloro-2-methylsulfonyl-3-pyridyl)oxy]ethyl]-3,6-dimethyl-2-(1-methylpyrazol-4-yl)chromen-4-one]	greater than 20 ×
Cc1cc([C@@H](C)Oc2ccc(Cl)nc2-c2noc(=O)[nH]2)c2oc(-c3cnc4ccoc4c3)c(C)c(=O)c2c1 [Example 6C, 3-[6-Chloro-3-[(1R)-1-(2-furo[3,2-b]pyridin-6-yl-3,6-yl)ethoxy]-2-pyridyl]-4H-dimethyl-4-oxo-chromen-8-1,2,4-oxadiazol-5-one]	greater than 20 ×
Cc1cc([C@@H](C)Oc2ccc(Cl)nc2-c2noc(=O)[nH]2)c2oc(C3CC3)c(C)c(=O)c2c1 [Example 64A, 3-[6-Chloro-3-[(1R)-1-(2-cyclopropyl-3,6-dimethyl-4-oxo-chromen-8-yl)ethoxy]-2-pyridyl]-4H-1,2,4-oxadiazol-5-lone]	greater than 20 ×
Cc1cc([C@@H](C)Oc2ccccc2S(N)(=O)=O)c2oc(C3CC3)c(C)c(=O)c2c1 [Example 104C, 2-[(1R)-1-(2-Cyclopropyl-3,6-dimethyl-4-oxo-chromen-8-yl)ethoxy]benzenesulfonamide]	greater than 50 ×
Cc1cc([C@@H](C)Oc2ccc(Cl)nc2C(N)=O)c2oc(-c3ccc4ccn(C)c(=O)c4c3)c(C)c(=O)c2c1 [Example 115A, 6-Chloro-3-[(1R)-1-[3,6-dimethyl-2-(2-methyl-1-oxo-7-isoquinolyl)-4-oxo-chromen-8-yl]ethoxy]pyridine-2-carboxamide]	greater than 20 ×
Cc1cc([C@@H](C)Oc2ccc(F)cc2S(N)(=O)=O)c2oc(-c3cnc4ccoc4c3)c(C)c(=O)c2c1 [Example 106C, 5-Fluoro-2-[(1R)-1-(2-furo[3,2-b]pyridin-6-yl-3,6-dimethyl-4-oxo-chromen-8-yl)ethoxy]benzenesulfonamide]	greater than 50 ×
Cc1cc([C@@H](C)Oc2ccc(Cl)nc2S(N)(=O)=O)c2oc(-c3ccc4nn(C)cc4n3)c(C)c(=O)c2c1 [Example 5B, 6-Chloro-3-[(1R)-1-[3,6-dimethyl-2-(2-methylpyrazolo[4,3-b]pyridin-5-yl)-4-oxo-chromen-8-yl]ethoxy]pyridine-2-sulfonamide]	greater than 50 ×
Cc1cc([C@@H](C)Oc2ccc(Cl)nc2S(N)(=O)=O)c2oc(-c3ccc(C#N)cc3)c(C)c(=O)c2c1 [Example 25C, 6-Chloro-3-[(1R)-1-[2-(4-cyanophenyl)-3,6-dimethyl-4-oxo-chromen-8-yl]ethoxy]pyridine-2-sulfonamide]	greater than 20 ×
Cc1cc([C@@H](C)Oc2ccc(Cl)nc2S(N)(=O)=O)c2oc(-c3cnccn3)c(C)c(=O)c2c1 [Example 29C, 6-Chloro-3-[(1R)-1-(3,6-dimethyl-4-oxo-2-pyrazin-2-yl-chromen-8-yl)ethoxy]pyridine-2-sulfonamide]	greater than 50 ×
Cc1cc(C(C)Oc2ccc(Cl)nc2C)c2oc(-c3cccnc3)c(C)c(=O)c2c1 (single isomer, unassigned; isomer 1) [Example 9, 8-[1-[(6-Chloro-2-methyl-3-pyridyl)oxy]ethyl]-3,6-dimethyl-2-(3-pyridyl)chromen-4-one, Isomer 1]	greater than 20 ×
